Each structure is given as a SMILES string.

The test system of the data set is HIF-1 transcriptional activity. Put plainly: HIF-inducible luciferase reporter assay in LN229-V6R cells under hypoxia. Type of data set: cell-based, human. The note with it: rank among 13 compounds, 1 = lowest remaining activity. The procedure:
Results are plotted as percent of luciferase activity found in extracts of untreated cells used as controls. (A) Luciferase activity in extracts of LN229-V6R cells, which contain a HIF-inducible luciferase reporter gene. The cells were grown under hypoxia to activate HIF. (B) Luciferase activity in extracts of LN229-Lux cells, which contain a constitutively expressed luciferase reporter gene. Results shown are from cells grown under normoxia; similar results were obtained under hypoxia.
The effects of the 12 heteroarylsulfonamides on HIF transcriptional activity under hypoxia were measured by determining the luciferase activity present in LN229-V6R cells, which contain a stably integrated hypoxia/HIF inducible luciferase reporter gene. As a control for the absence of inhibition on luciferase enzyme per se, we also tested 1 and five heteroarylsulfonamides in LN229-Lux cells that contain a constitutive luciferase reporter gene driven by a retroviral LTR promoter. An Hsp90 inhibitor, 17-DMAG, and 1 were used as positive controls. […] The heteroarylsulfonamides decreased HIF-1 activity in a dose-dependent fashion with IC50 values below (6a, 6b, 6d-6f, 6h, 6i, 6l) or close to 5 μM (6c, 6g, 6j, 6k) (FIG. 2).
On to `COc1ccc(S(=O)(=O)N(Cc2ccc3c(c2)C=CC(C)(C)O3)c2ccccc2)cc1OC` [Compound 1, 3,4-Dimethoxy-N-[(2,2-dimethyl-2H-chromene-6-yl)methyl]-N-phenylbenzenesulfonamide, reference compound], for which the “remaining HIF-1 activity at 2.5 μM, rank” value is listed as 1. The figure for `CC(C)N(Cc1ccc2c(c1)C=CC(C)(C)O2)S(=O)(=O)c1ccccn1` [Compound 6a, N-[(2,2-Dimethyl-2H-chromen-6-yl)methyl]-N-(propan-2-yl)pyridine-2-sulfonamide] is 5; for `CC1(C)C=Cc2cc(CN(C3CC3)S(=O)(=O)c3ccccn3)ccc2O1` [Compound 6b, N-Cyclopropyl-N-[(2,2-dimethyl-2H-chromen-6-yl)methyl]pyridine-2-sulfonamide] it is 10.

For `CC(C)CN(Cc1ccc2c(c1)C=CC(C)(C)O2)S(=O)(=O)c1ccccn1` [Compound 6c, N-[(2,2-Dimethyl-2H-chromen-6-yl)methyl]-N-(2-methylpropyl)pyridine-2-sulfonamide], the “remaining HIF-1 activity at 2.5 μM, rank” value was found to be 13. The same measure for `CC1(C)C=Cc2cc(CN(CC3CC3)S(=O)(=O)c3ccccn3)ccc2O1` [Compound 6d, N-(Cyclopropylmethyl)-N-[(2,2-dimethyl-2H-chromen-6-yl)methyl]pyridine-2-sulfonamide]: 3. Turning to `CC1(C)C=Cc2cc(CN(C3CCC3)S(=O)(=O)c3ccccn3)ccc2O1` [Compound 6e, N-(Cyclobutyl)-N-[(2,2-dimethyl-2H-chromen-6-yl)methyl]pyridine-2-sulfonamide], the “remaining HIF-1 activity at 2.5 μM, rank” value turned out to be 4. For `CC1(C)C=Cc2cc(CN(C3CCCC3)S(=O)(=O)c3ccccn3)ccc2O1` [Compound 6f, N-(Cyclopentyl)-N-[(2,2-dimethyl-2H-chromen-6-yl)methyl]pyridine-2-sulfonamide], the “remaining HIF-1 activity at 2.5 μM, rank” value is recorded as 7.

On to `COc1cc(CN(C(C)C)S(=O)(=O)c2ccccn2)cc2c1OC(C)(C)C=C2` [Compound 6g], for which the “remaining HIF-1 activity at 2.5 μM, rank” value turned out to be 8. The figure for `CC(C)CN(Cc1ccc2c(c1)C=CC(C)(C)O2)S(=O)(=O)c1ccncc1` [Compound 6i, N-[(2,2-Dimethyl-2H-chromen-6-yl)methyl]-N-(2-methylpropyl)pyridine-4-sulfonamide] is 9. The same measure for `CC(C)CN(Cc1ccc2c(c1)C=CC(C)(C)O2)S(=O)(=O)c1nccn1C` [Compound 6j, N-[(2,2-Dimethyl-2H-chromen-6-yl)methyl]-N-(2-methylpropyl)-1-methyl-1H-imidazole-2-sulfonamide]: 11; for `CC(C)CN(Cc1ccc2c(c1)C=CC(C)(C)O2)S(=O)(=O)c1nccs1` [Compound 6k, N-[(2,2-Dimethyl-2H-chromen-6-yl)methyl]-N-(2-methylpropyl)-1,3-thiazole-2-sulfonamide]: 12.

Values taken from US9381260B2, “Hypoxia inducible factor-1 pathway inhibitors and uses as anticancer and imaging agents” (EMORY UNIVERSITY, priority 2011, dated 2016).
